Test results taken from article PMC4773767.
These are yes or no findings as the source states them, for the method shown. Binding seen in cells or lysates may run through a third protein. Some binding calls cover weakened binding; strength is not graded here. For some of these results: Tags and fused reporters may be left off the sequences shown. One block for each binder: values may come before it.

What was measured:
[1] = molecular target: T1, endogenous Munc13-4 (rat (endogenous in RBL-2H3)) (UniProt Q9R189); assay: co-IP; RBL-2H3 cells transfected with FLAG-Rab27a together with Si-control or Si-Rab37 plasmid, G418-selected, treated with DSP, lysed in the presence of GTPγS; immunoprecipitation with or without anti-Munc13-4 antibody; blot with anti-FLAG or anti-Munc13-4
T1 sequence: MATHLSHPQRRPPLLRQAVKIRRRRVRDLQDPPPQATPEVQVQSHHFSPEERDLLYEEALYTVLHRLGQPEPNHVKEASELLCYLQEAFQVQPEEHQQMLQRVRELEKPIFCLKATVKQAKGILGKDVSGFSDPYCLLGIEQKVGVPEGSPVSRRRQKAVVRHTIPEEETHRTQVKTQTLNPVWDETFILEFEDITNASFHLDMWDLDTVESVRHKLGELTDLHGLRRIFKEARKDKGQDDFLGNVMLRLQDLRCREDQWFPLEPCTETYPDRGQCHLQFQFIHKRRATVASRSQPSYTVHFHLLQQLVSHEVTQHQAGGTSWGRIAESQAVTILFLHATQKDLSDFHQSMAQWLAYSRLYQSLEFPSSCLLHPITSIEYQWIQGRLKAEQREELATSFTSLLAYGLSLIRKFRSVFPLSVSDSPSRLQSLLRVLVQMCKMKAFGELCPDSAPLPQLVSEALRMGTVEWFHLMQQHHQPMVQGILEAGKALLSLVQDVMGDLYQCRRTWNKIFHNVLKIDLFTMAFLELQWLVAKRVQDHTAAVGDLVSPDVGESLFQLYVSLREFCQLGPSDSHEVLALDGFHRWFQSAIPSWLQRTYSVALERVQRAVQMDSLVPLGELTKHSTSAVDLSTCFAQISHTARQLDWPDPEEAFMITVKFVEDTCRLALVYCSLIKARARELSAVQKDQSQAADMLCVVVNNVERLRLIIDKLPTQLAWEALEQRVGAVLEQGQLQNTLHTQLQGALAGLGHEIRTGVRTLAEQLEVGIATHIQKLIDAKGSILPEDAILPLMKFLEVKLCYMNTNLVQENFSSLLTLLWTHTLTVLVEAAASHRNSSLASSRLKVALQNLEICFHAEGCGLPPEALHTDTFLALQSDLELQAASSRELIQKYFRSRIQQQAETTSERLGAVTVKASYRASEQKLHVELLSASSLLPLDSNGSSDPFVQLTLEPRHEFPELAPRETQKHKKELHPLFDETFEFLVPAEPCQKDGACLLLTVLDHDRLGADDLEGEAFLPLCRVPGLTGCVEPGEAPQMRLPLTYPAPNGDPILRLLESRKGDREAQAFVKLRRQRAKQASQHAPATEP

[2] = molecular target: T2, FLAG-Rab27a (rat) (UniProt P23640); assay: condition: only without GTPγS (no nucleotide or 0.1 mM GDP); co-IP; COS7 cells co-transfected; lysed at 4 °C in 25 mM Tris-HCl pH 7.5, 125 mM NaCl, 1 mM MgCl2, 1% Triton X-100 without GTPγS (no nucleotide named, or 0.1 mM GDP in Fig. 5A); anti-FLAG (M2) or anti-HA (12CA5) on protein G-Sepharose overnight; blot with anti-HA (3F10) or anti-FLAG
T2 sequence: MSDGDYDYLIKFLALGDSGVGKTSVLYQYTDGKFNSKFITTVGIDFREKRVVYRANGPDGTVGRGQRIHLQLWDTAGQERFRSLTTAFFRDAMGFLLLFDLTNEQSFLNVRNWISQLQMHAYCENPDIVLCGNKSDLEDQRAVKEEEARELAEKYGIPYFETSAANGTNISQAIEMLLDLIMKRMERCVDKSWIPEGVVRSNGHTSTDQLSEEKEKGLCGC

[3] = molecular target: T2, FLAG-Rab27a (rat); assay: co-IP; COS7 cells co-transfected; lysed at 4 °C in 25 mM Tris-HCl pH 7.5, 125 mM NaCl, 1 mM MgCl2, 1% Triton X-100 with 0.1 mM GTPγS; anti-FLAG (M2) on protein G-Sepharose overnight; blot with anti-HA (3F10) or anti-FLAG
[4] = molecular target: T3, Rab27a expressed in transfected RBL-2H3 cells (Fig. S15) (rat) (UniProt P23640); assay: co-IP; lysate from transfected RBL-2H3 cells pretreated with DSP, with or without antigen stimulation (Fig. S15)
T3 sequence: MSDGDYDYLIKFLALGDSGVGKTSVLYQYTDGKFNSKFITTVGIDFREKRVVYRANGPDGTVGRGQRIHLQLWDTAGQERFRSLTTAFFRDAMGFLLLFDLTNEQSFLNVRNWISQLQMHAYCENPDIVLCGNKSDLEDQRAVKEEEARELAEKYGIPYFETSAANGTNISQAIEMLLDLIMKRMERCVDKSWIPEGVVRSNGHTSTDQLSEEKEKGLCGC

- binding [1]: binds
B1: FLAG-Rab27a (in RBL-2H3 cells) (protein, UniProt P23640 1-221)
chain: MSDGDYDYLIKFLALGDSGVGKTSVLYQYTDGKFNSKFITTVGIDFREKRVVYRANGPDGTVGRGQRIHLQLWDTAGQERFRSLTTAFFRDAMGFLLLFDLTNEQSFLNVRNWISQLQMHAYCENPDIVLCGNKSDLEDQRAVKEEEARELAEKYGIPYFETSAANGTNISQAIEMLLDLIMKRMERCVDKSWIPEGVVRSNGHTSTDQLSEEKEKGLCGC

- binding [2]: no binding
- binding [3]: binds
B2: HA-Munc13-4 (protein, UniProt B2RUP2-2 1-1083)
chain: MATHLSHPQRRPLLRQAIKIRRRRVRDLQDPPPQATQEVQVQSHHFSPEERDLLYEEALYTVLHRLGQPEPNHVKEASELLSYLQEAFQVQPEEHQQMLRRVRELEKPVFCLKATVKQAKGILGKDVSGFSDPYCLLGIEQKVGVAEGSPVSRRRQKAVVKHTIPEEETHRTQVKSQTLNPVWDETFILEFEDIANASFHLDMWDLDTVESVRQKLGELTDLHGLRRIFKEARKDKGQDDFLGNVVLRLQDLRCREDQWFPLEPCTETYPDRGQCHLQFQFIHKRRATAASRSQPSYTVHFHLLQQLVSHEVTQHQAGSTSWDASLSPQAVTILFLHATQKDLSDFHQSMAQWLAYSRLYQSLEFPSSCLLHPITSIEYQWIQGRLKAEQREELATSFTSLLAYGLSLIRKFRSVFPLSVSDSPSRLQSLLRVLVQMCKMKAFGELCPDSAPLSQLVSEALRMGTVEWFHLMQQHHQPMGILEAGKALLNLVQDVMGDLYQCRRTWNKIFHNVLKIDLFSMAFLELQWLVAKRVQDHTVAAGNLVSPDIGESLFQLYVSLKELCQLGPVPSDSREVLALDGFHRWFQPAIPSWLQKTYSVALERVQRAVQMDTLVPLGELTKHSTSAVDLSTCFAQISHTARQLDWPDPEEAFMITVKFVEDTCRLALVYCSLIKARARELSAVQKDQSQAADMLCVVVNNMEQLRLIIDKLPTQLAWEALEQRVGAVLEEGQLQNTLHAQLQGALAGLGHEIRTGVRTLAEQLEVGIATHIQKLIGVKESVLPEDAILPLMKFLEVKLCYMNTNLVQENFSSLLTLLWTHTLTVLVEVASSQRSSSLASGRLKVALQNLEVCFHAEGCGLPPEALHTDTFQALQNDLELQAASSRELIQKYFCSRIQQQAETTSERLGAVTVKVSYRASEQRLRVELLSASSLLPLDSNGSSDPFVQLTLEPRHEFPEVAPRETQKHKKELHPLFDETFEFLVPAEPCQKAWACLLLTVLDHDRLGADDLEGEAFLPLCRVPGLTDCAEPGEAPQMRLPLTYPAPNGDPILRLLESRKGDREAQAFVKLRRQRAKQASQHAP

- binding [4]: binds
B3: Munc13-4 expressed in transfected RBL-2H3 cells (Fig. S15) (protein, UniProt B2RUP2-2 1-1083)
chain: MATHLSHPQRRPLLRQAIKIRRRRVRDLQDPPPQATQEVQVQSHHFSPEERDLLYEEALYTVLHRLGQPEPNHVKEASELLSYLQEAFQVQPEEHQQMLRRVRELEKPVFCLKATVKQAKGILGKDVSGFSDPYCLLGIEQKVGVAEGSPVSRRRQKAVVKHTIPEEETHRTQVKSQTLNPVWDETFILEFEDIANASFHLDMWDLDTVESVRQKLGELTDLHGLRRIFKEARKDKGQDDFLGNVVLRLQDLRCREDQWFPLEPCTETYPDRGQCHLQFQFIHKRRATAASRSQPSYTVHFHLLQQLVSHEVTQHQAGSTSWDASLSPQAVTILFLHATQKDLSDFHQSMAQWLAYSRLYQSLEFPSSCLLHPITSIEYQWIQGRLKAEQREELATSFTSLLAYGLSLIRKFRSVFPLSVSDSPSRLQSLLRVLVQMCKMKAFGELCPDSAPLSQLVSEALRMGTVEWFHLMQQHHQPMGILEAGKALLNLVQDVMGDLYQCRRTWNKIFHNVLKIDLFSMAFLELQWLVAKRVQDHTVAAGNLVSPDIGESLFQLYVSLKELCQLGPVPSDSREVLALDGFHRWFQPAIPSWLQKTYSVALERVQRAVQMDTLVPLGELTKHSTSAVDLSTCFAQISHTARQLDWPDPEEAFMITVKFVEDTCRLALVYCSLIKARARELSAVQKDQSQAADMLCVVVNNMEQLRLIIDKLPTQLAWEALEQRVGAVLEEGQLQNTLHAQLQGALAGLGHEIRTGVRTLAEQLEVGIATHIQKLIGVKESVLPEDAILPLMKFLEVKLCYMNTNLVQENFSSLLTLLWTHTLTVLVEVASSQRSSSLASGRLKVALQNLEVCFHAEGCGLPPEALHTDTFQALQNDLELQAASSRELIQKYFCSRIQQQAETTSERLGAVTVKVSYRASEQRLRVELLSASSLLPLDSNGSSDPFVQLTLEPRHEFPEVAPRETQKHKKELHPLFDETFEFLVPAEPCQKAWACLLLTVLDHDRLGADDLEGEAFLPLCRVPGLTDCAEPGEAPQMRLPLTYPAPNGDPILRLLESRKGDREAQAFVKLRRQRAKQASQHAP
